No constants are given. Whether binding was seen depends on the method and setting. Binding seen in cells or lysates may run through a third protein. Some results given as binding are weak or reduced against the parent protein; the word gives no strength. Sequences can lack the tags named with a protein.
Tests used:
[1] = target: T1, FLAG-BNIP-H full length (expressed in PC12 cells) (human) (UniProt Q86WG3); test: co-IP; PC12 cells transfected with FLAG-BNIP-H full length alone or with HA-Pin1 or HA-Rac1, NGF for 24 hours; anti-FLAG precipitate blotted for endogenous kidney-type glutaminase
T1 sequence: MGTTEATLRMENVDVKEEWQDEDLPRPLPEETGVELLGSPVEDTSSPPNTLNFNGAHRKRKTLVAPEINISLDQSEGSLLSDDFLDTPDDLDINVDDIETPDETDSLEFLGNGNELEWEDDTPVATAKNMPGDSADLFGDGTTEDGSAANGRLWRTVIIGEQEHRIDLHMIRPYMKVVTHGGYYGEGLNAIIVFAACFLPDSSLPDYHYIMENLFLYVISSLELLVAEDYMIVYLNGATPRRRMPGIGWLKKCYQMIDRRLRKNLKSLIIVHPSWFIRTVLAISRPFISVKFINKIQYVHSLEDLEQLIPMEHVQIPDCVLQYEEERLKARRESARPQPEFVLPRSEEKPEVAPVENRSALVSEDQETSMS

The chains behind the UniProt entries cited, without tags or fusion partners. Residues count along the entry.
UniProt Q13526: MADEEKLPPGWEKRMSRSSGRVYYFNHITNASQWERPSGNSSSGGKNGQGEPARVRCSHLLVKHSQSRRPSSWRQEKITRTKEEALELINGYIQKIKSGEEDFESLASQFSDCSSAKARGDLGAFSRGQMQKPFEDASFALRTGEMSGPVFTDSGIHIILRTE
UniProt P13264, residues 55-674: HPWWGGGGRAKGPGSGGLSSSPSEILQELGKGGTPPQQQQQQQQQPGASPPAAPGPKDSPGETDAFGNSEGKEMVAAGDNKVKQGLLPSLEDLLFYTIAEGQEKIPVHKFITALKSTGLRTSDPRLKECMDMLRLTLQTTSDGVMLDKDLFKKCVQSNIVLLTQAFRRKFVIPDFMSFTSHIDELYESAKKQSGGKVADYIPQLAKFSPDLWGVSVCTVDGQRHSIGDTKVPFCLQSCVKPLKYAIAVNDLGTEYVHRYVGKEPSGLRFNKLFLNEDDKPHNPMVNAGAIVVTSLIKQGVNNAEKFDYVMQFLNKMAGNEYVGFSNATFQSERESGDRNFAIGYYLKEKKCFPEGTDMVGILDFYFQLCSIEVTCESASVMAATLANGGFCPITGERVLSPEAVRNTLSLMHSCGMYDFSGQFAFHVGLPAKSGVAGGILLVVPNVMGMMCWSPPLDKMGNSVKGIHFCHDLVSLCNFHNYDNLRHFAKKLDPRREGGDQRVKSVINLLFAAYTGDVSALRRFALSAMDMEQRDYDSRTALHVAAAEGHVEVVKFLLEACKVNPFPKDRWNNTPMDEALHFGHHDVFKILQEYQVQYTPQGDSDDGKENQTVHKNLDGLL

[2] = target: T2, FLAG-tagged C-terminal BNIP-H fragment (aa 286–371) (human) (UniProt Q86WG3); test: co-IP; 293T cells co-transfected, no stimulation; lysis buffer 50 mM HEPES pH 7.4, 150 mM NaCl, 1% Triton X-100; anti-FLAG agarose precipitates the FLAG-tagged protein, 4°C; blot with anti-HA
T2 sequence: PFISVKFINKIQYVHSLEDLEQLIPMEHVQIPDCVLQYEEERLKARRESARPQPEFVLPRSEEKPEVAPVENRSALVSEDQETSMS

[3] = target: triple FLAG-tagged Pin1 (expressed in PC12 cells) (human) (UniProt Q13526); test: co-IP; PC12 cells co-transfected and treated with NGF; RIPA lysate; anti-FLAG agarose precipitates triple FLAG-Pin1; blot with anti-HA

In the case of “endogenous kidney-type glutaminase (from UniProt P13264 55-674) (enzyme)”, the binding [1] is reported as “binds”.

B1: HA-BNIP-H aa 1–287 (expressed in 293T cells) (domain or fragment, UniProt Q86WG3 1-287)
chain: MGTTEATLRMENVDVKEEWQDEDLPRPLPEETGVELLGSPVEDTSSPPNTLNFNGAHRKRKTLVAPEINISLDQSEGSLLSDDFLDTPDDLDINVDDIETPDETDSLEFLGNGNELEWEDDTPVATAKNMPGDSADLFGDGTTEDGSAANGRLWRTVIIGEQEHRIDLHMIRPYMKVVTHGGYYGEGLNAIIVFAACFLPDSSLPDYHYIMENLFLYVISSLELLVAEDYMIVYLNGATPRRRMPGIGWLKKCYQMIDRRLRKNLKSLIIVHPSWFIRTVLAISRPF
With B1 the binding [2] was “binds”.

B2: HA-BNIP-H aa 1–190 (expressed in 293T cells) (domain or fragment, UniProt Q86WG3 1-190)
chain: MGTTEATLRMENVDVKEEWQDEDLPRPLPEETGVELLGSPVEDTSSPPNTLNFNGAHRKRKTLVAPEINISLDQSEGSLLSDDFLDTPDDLDINVDDIETPDETDSLEFLGNGNELEWEDDTPVATAKNMPGDSADLFGDGTTEDGSAANGRLWRTVIIGEQEHRIDLHMIRPYMKVVTHGGYYGEGLNA
In the case of B2, the binding [2] is reported as “no binding”.

B3: HA-BNIP-2 (protein, UniProt Q12982 1-314)
chain: MEGVELKEEWQDEDFPIPLPEDDSIEADILAITGPEDQPGSLEVNGNKVRKKLMAPDISLTLDPSDGSVLSDDLDESGEIDLDGLDTPSENSNEFEWEDDLPKPKTTEVIRKGSITEYTAAEEKEDGRRWRMFRIGEQDHRVDMKAIEPYKKVISHGGYYGDGLNAIVVFAVCFMPESSQPNYRYLMDNLFKYVIGTLELLVAENYMIVYLNGATTRRKMPSLGWLRKCYQQIDRRLRKNLKSLIIVHPSWFIRTLLAVTRPFISSKFSQKIRYVFNLAELAELVPMEYVGIPECIKQVDQELNGKQDEPKNEQ
B3 was tested, and the binding [3] was “no binding”.

Source: paper PMC2442193
